Experimental data published in paper PMC11262183, “Arid5a uses disordered extensions of its core ARID domain for distinct DNA- and RNA-recognition and gene regulation”.
Positions count from the first letter of the chain named. For part of these data: The comparison behind a weaker result is the experiment's own reference, which may not be listed here. Tags and fusion partners may be left off the protein sequences shown. For part of these data: For at least one entry, the source does not settle the construct or the ends of the probe. For part of these data: At least one verdict rests on a figure or table, not on a statement of the authors.

Key:
[1] = biological target: T1, Arid5a ARID37-183 (human) (UniProt Q03989); test: EMSA; conditions: 20 mM Bis-Tris pH 6.5, 150 mM NaCl, 2 mM TCEP, 0.02% NaN3, EMSA plus 10 mM MgCl2 and 0.6 ug yeast tRNA per 20 ul, 22-24 C, recombinant protein, residues 37-183, protein details: cloned in pET-Trx1a (TEV site)
T1 sequence (looked up): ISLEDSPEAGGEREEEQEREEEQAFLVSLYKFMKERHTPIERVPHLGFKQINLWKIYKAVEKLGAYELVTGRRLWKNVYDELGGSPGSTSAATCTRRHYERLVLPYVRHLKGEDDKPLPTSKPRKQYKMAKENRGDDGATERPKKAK

[2] = biological target: T2, ARID37-183 K85A/Q86A (human) (UniProt Q03989); test: NMR; conditions: 2-fold DNA; 20 mM Bis-Tris pH 6.5, 150 mM NaCl, 2 mM TCEP, 0.02% NaN3; NMR at 298 K; recombinant protein; residues 37-183; protein details: cloned in pET-Trx1a (TEV site)
T2 sequence (looked up): T1 sequence (looked up) with K49A, Q50A

[3] = biological target: T3, ARID37-183 T125A/S126A (human) (UniProt Q03989); test: NMR; conditions: 2-fold DNA, effect less pronounced than in core; 20 mM Bis-Tris pH 6.5, 150 mM NaCl, 2 mM TCEP, 0.02% NaN3; NMR at 298 K; recombinant protein; residues 37-183; protein details: cloned in pET-Trx1a (TEV site)
T3 sequence (looked up): T1 sequence (looked up) with T89A, S90A

[4] = biological target: T4, ARID49-152 T125A/S126A (human) (UniProt Q03989); test: NMR; conditions: 2-fold DNA; 20 mM Bis-Tris pH 6.5, 150 mM NaCl, 2 mM TCEP, 0.02% NaN3; NMR at 298 K; recombinant protein; residues 49-152; protein details: cloned in pET-Trx1a (TEV site)
T4 sequence (looked up): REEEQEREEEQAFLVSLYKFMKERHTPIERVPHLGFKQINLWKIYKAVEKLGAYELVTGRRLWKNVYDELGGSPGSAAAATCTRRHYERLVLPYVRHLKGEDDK

[5] = biological target: T5, Arid5a ARID (Homo sapiens) (UniProt Q03989); test: pull-down; conditions: 1 and 5 uM protein, 25 mM Tris pH 7.5, 150 mM KCl, 3 mM MgCl2, purified recombinant protein, residues 49-152, protein details: N-terminal Twin-Strep, kept, only the motif is given
T5 sequence (looked up): T4 sequence (looked up) with A77T, A78S

[6] = biological target: T6, Arid5a ARID49-152 (human) (UniProt Q03989); test: NMR; conditions: 20 mM Bis-Tris pH 6.5, 150 mM NaCl, 2 mM TCEP, 0.02% NaN3, NMR at 298 K, recombinant protein, residues 49-152, protein details: cloned in pET-Trx1a (TEV site)
T6 sequence (looked up): T4 sequence (looked up) with A77T, A78S

[7] = biological target: T1, Arid5a ARID37-183 (human); test: NMR; conditions: 20 mM Bis-Tris pH 6.5, 150 mM NaCl, 2 mM TCEP, 0.02% NaN3, NMR at 298 K, recombinant protein, residues 37-183, protein details: cloned in pET-Trx1a (TEV site)
[8] = biological target: T7, Arid5b extended ARID (human) (UniProt Q14865); test: EMSA; conditions: 20 mM Bis-Tris pH 6.5, 150 mM NaCl, 2 mM TCEP, 0.02% NaN3; EMSA plus 10 mM MgCl2 and 0.6 ug yeast tRNA per 20 ul, 22-24 C; recombinant protein; residues …; protein details: cloned in pET-Trx1a (TEV site); label: 5'-fluorescein on strand 1
T7 sequence (looked up): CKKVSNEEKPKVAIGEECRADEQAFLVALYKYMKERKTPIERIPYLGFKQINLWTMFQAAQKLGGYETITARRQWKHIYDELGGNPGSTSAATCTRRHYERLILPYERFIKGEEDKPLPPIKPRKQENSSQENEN

[9] = biological target: T8, Jarid1a extended ARID (human) (UniProt P29375); test: EMSA; conditions: 20 mM Bis-Tris pH 6.5, 150 mM NaCl, 2 mM TCEP, 0.02% NaN3, EMSA plus 10 mM MgCl2 and 0.6 ug yeast tRNA per 20 ul, 22-24 C, recombinant protein, residues 66-198, protein details: cloned in pET-Trx1a (TEV site), label: 5'-fluorescein on strand 1
T8 sequence (looked up): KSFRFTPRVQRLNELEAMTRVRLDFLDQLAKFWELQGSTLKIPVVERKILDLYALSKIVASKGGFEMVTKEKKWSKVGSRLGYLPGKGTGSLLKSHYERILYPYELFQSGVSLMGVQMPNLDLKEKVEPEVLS

[10] = biological target: T9, Arid5a ARID37-152 (human) (UniProt Q03989); test: EMSA; conditions: less pronounced complex band; 20 mM Bis-Tris pH 6.5, 150 mM NaCl, 2 mM TCEP, 0.02% NaN3; EMSA plus 10 mM MgCl2 and 0.6 ug yeast tRNA per 20 ul, 22-24 C; recombinant protein; residues 37-152; protein details: cloned in pET-Trx1a (TEV site); label: 5'-fluorescein on strand 1
T9 sequence (looked up): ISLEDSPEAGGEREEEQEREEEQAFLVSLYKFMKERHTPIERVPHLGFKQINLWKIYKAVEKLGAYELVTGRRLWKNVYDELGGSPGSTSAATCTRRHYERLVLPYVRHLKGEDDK

[11] = biological target: T6, Arid5a ARID49-152 (human); test: EMSA; conditions: less pronounced complex band; 20 mM Bis-Tris pH 6.5, 150 mM NaCl, 2 mM TCEP, 0.02% NaN3; EMSA plus 10 mM MgCl2 and 0.6 ug yeast tRNA per 20 ul, 22-24 C; recombinant protein; residues 49-152; protein details: cloned in pET-Trx1a (TEV site); label: 5'-fluorescein on strand 1
[12] = affinity rises with RNA length, label: 5'-32P
[13] = no KD could be derived, label: 5'-fluorescein on strand 1

**Q.** Does GGCCUCUGUGAGGCC [15nt RNA] bind [1, 12]?
**A.** Result: binds more weakly

**Q.** What does the source list for GCACAATATAACG (double strand) [13merAT]?
**A.** binding result [2]: binds; binding result [3]: binds more weakly; binding result [4]: binds more weakly

**Q.** With GUUAGCU [7-mer GTTAGCT] as the sequence, how does the binding signal (RBNS z-score of enrichment R) [5] read?
**A.** Its binding signal (RBNS z-score of enrichment R) is -0.407.

**Q.** Does ACAGGCAGG / CCUGCCUGU [RBNS-9mer dsRNA] bind ([6]; 2-fold RNA)?
**A.** Result: binds more weakly

**Q.** Does “ACGAATTCTAATACGACTCACTATAGGGACACTATTTTAATTATTTTTAATTTATTAATATTTAAATATGTGAAGCGCCGGCCATGGTCCCAGCC (double strand) [dsDNA_95mer]” bind ([7]; affinity scales with length)?
**A.** Result: binds

**Q.** Does “GCACAACACAACG (double strand) [13merAT_var5]” bind [1, 13]?
**A.** Result: binds more weakly

**Q.** Does GCCCCGCCCGCCG (double strand) [13merGC] bind ([7]; fast exchange)?
**A.** Result: binds more weakly

**Q.** Does GCCCCGCCCGCCG (double strand) [13merGC] bind ([6]; 2-fold DNA)?
**A.** Result: binds more weakly

**Q.** Does “CACACCGUUCUAGGUGCUG [19mer_ADE (Ox40 ADE)]” bind ([6]; marginal interaction, up to 3.5-fold RNA)?
**A.** Result: binds more weakly

**Q.** Which binding signal (RBNS z-score of enrichment R) ([5]; counted as no binding) does the source give for UGACGAC [7-mer TGACGAC] here?
**A.** Its binding signal (RBNS z-score of enrichment R) is -1.06.

**Q.** Does “GUGUGGCUGUCACUCGGCUGCAUGCUUAGUGCACUCACGCAGUAUAAUUAAUAACUAAUUACUG [64nt RNA]” bind [1, 12]?
**A.** Result: binds

**Q.** How did the binding signal (RBNS z-score of enrichment R) [5] turn out when CGUCAAU [7-mer CGTCAAT] was run?
**A.** Its binding signal (RBNS z-score of enrichment R) is -0.49.

**Q.** Does “GGUCGUUGACAGGACACGAGUAACUCGUCUAUCUUCUGCAGGCUGCUUACGGUUUCGUCCGUGUUGCAGCCGAUCAUCAGCACAUCUAGGUUUCGUCCGGGUGUGACCGAAAGGUAAGAUGGAGAGCCUUGUCCCUGGUUUCAACGAGAA [150nt RNA]” bind [1, 12]?
**A.** Result: binds

**Q.** For UGUGGAU [7-mer TGTGGAT], which binding signal (RBNS z-score of enrichment R) ([5]; counted as no binding) is on record?
**A.** Its binding signal (RBNS z-score of enrichment R) is -1.18.

**Q.** With GAGGGCU [7-mer GAGGGCT] as the sequence, how does the binding signal (RBNS z-score of enrichment R) ([5]; counted as no binding) read?
**A.** Its binding signal (RBNS z-score of enrichment R) is -1.33.

**Q.** With UGAGUCU [7-mer TGAGTCT] as the sequence, how does the binding signal (RBNS z-score of enrichment R) [5] read?
**A.** Its binding signal (RBNS z-score of enrichment R) is -0.668.

**Q.** With CAUGUCU [7-mer CATGTCT] as the sequence, how does the binding signal (RBNS z-score of enrichment R) [5] read?
**A.** Its binding signal (RBNS z-score of enrichment R) is -0.006.

**Q.** Which binding signal (RBNS z-score of enrichment R) ([5]; counted as no binding) does the source give for UCGUUGG [7-mer TCGTTGG] here?
**A.** Its binding signal (RBNS z-score of enrichment R) is -2.52.

**Q.** How did the binding signal (RBNS z-score of enrichment R) ([5]; counted as no binding) turn out when GGAUGUU [7-mer GGATGTT] was run?
**A.** The binding signal (RBNS z-score of enrichment R) was -0.849.

**Q.** Does “GCCCCGCCCGCCG (double strand) [FAM-13merGC]” bind [1, 13]?
**A.** Result: binds more weakly

**Q.** Does “GCCCCGCCCGCCG (double strand) [FAM-13merGC]” bind [8]?
**A.** Result: binds more weakly

**Q.** Does “GCCCCGCCCGCCG (double strand) [FAM-13merGC]” bind ([9]; less AT-specific than Arid5b)?
**A.** Result: binds

**Q.** Which binding signal (RBNS z-score of enrichment R) [5] does the source give for GGCUCAG [7-mer GGCTCAG] here?
**A.** The binding signal (RBNS z-score of enrichment R) was -0.222.

**Q.** Which binding signal (RBNS z-score of enrichment R) [5] does the source give for CCCCUGG [7-mer CCCCTGG] here?
**A.** Its binding signal (RBNS z-score of enrichment R) is -0.751.

**Q.** Does “GGCACAGAACUUAUGUUGUUCUCUAUGGAGAACUAAAAGUAUGAGCGUUAGGACACUAUUUUAAUUAUUUUUAAUUUAUUAAUAUUUAAAUAUGUGAAGCUGAGUUAAUUUAUGUAAGUCAUAUUUAUA [Il-6 3'UTR 129 nt]” bind ([6]; 1.2-fold RNA, moderate affinity)?
**A.** Result: binds more weakly

**Q.** Which binding signal (RBNS z-score of enrichment R) ([5]; counted as no binding) does the source give for CGUACCG [7-mer CGTACCG] here?
**A.** Its binding signal (RBNS z-score of enrichment R) is -0.948.

**Q.** Does “GAATGCACTGGGCCTGTTTCC (double strand) [dsDNA_21mer]” bind ([7]; affinity scales with length)?
**A.** Result: binds

**Q.** Does “GCACAACGTAACG (double strand) [13merAT_var3]” bind [1, 13]?
**A.** Result: binds more weakly

**Q.** How did the binding signal (RBNS z-score of enrichment R) ([5]; counted as no binding) turn out when UCCGGAU [7-mer TCCGGAT] was run?
**A.** Its binding signal (RBNS z-score of enrichment R) is -1.53.

**Q.** Does “GCACAATATAACG (double strand) [FAM-13merAT]” bind [10]?
**A.** Result: binds more weakly

**Q.** Does “GCACAATATAACG (double strand) [FAM-13merAT]” bind [11]?
**A.** Result: binds more weakly

**Q.** Does “GCACAATATAACG (double strand) [FAM-13merAT]” bind [8]?
**A.** Result: binds

**Q.** Does “GCACAATATAACG (double strand) [FAM-13merAT]” bind [9]?
**A.** Result: binds

**Q.** With CUCAGUC [7-mer CTCAGTC] as the sequence, how does the binding signal (RBNS z-score of enrichment R) [5] read?
**A.** Its binding signal (RBNS z-score of enrichment R) is -0.579.

**Q.** Does “GAATTCTAATACGACTCACTATAGCATTACTACAGGTTCGCCTGCCTGGTGGTGCGCCGGCCATGGTCCC (double strand) [dsDNA_70mer]” bind ([7]; affinity scales with length)?
**A.** Result: binds

**Q.** Does “GGACACUAUUUUAAUUAUUUUUAAUUUAUUAAUAUUUAAAUAUGUGAAGCUGAGUUAAUU [60mer_Il6]” bind ([7]; affinity scales with length)?
**A.** Result: binds

**Q.** With GCGAAAG [7-mer GCGAAAG] as the sequence, how does the binding signal (RBNS z-score of enrichment R) [5] read?
**A.** The binding signal (RBNS z-score of enrichment R) was -0.322.
